PubChem BioAssay AID1259274, Sanger Institute, 2017
The whole screen tested 794 reagents; below is a random part of them. In the full data, 11 (1.4%) got an active call. 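Calls rest on knock-down without drug only; synergy scores with anchor drugs were not used for the essential call.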 Viability is capped at 1. Not all columns of the deposit are shown. Not stated in the record: the amount of reagent, the time to read-out.

Purpose: 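Kinases RKO cells need to grow, alone or with anchor drugs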 (primary screen)
Cells: human RKO colorectal cancer cells
Reagents: siRNA pool against human genes
Treatment: anchor drugs BYL719 at 1 µM, cetuximab at 5 µg/ml or trametinib at 10 nM; DMSO vehicle as the no-drug arm
Detection: 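Viability of cells versus control pool 2 (non-targeting) averaged across replicates; knock-down-only robust z-score; for every anchor drug (BYL719, cetuximab, trametinib) a synergy score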
Scale: viability z-score, siRNA alone: higher = more viable cells; low values mean essential gene; viability, siRNA alone, vehicle: higher = more viable cells; synergy score with BYL719: higher = stronger combined killing with the drug
Active means: 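Essential when the robust viability z-score with siRNA only falls below -3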
Calls: active = essential when knocked down alone; inactive = no change alone

Target gene | viability z-score, siRNA alone | viability, siRNA alone, vehicle (fraction of control) | synergy score with BYL719 | outcome
PRKCE | 0.739 | 0.961 | -0.168 | inactive
RPS6KC1 | -0.262 | 0.876 | -0.0667 | inactive
PIKFYVE | -0.327 | 0.87 | -0.0238 | inactive
RPS6KA1 | -0.0276 | 0.896 | -0.0331 | inactive
KALRN | 0.252 | 0.92 | -0.102 | inactive
ACVR2B | 0.162 | 0.912 | -0.0304 | inactive
PRKY | 0.0409 | 0.902 | -0.0845 | inactive
MYH10 | 1.19 | 1 | 0.106 | inactive
FYN | 0.278 | 0.922 | -0.0363 | inactive
ACVR1B | 0.366 | 0.929 | -0.0232 | inactive
EGFR | 0.0718 | 0.904 | -0.0669 | inactive
AMHR2 | 1.19 | 1 | 0.0442 | inactive

In a second layout: 3 of the entries above.
KALRN
- viability z-score, siRNA alone: 0.252
- viability, siRNA alone, vehicle (fraction of control): 0.92
- synergy score with BYL719: -0.102
- outcome: inactive

ACVR2B
- viability z-score, siRNA alone: 0.162
- viability, siRNA alone, vehicle (fraction of control): 0.912
- synergy score with BYL719: -0.0304
- outcome: inactive

PRKY
- viability z-score, siRNA alone: 0.0409
- viability, siRNA alone, vehicle (fraction of control): 0.902
- synergy score with BYL719: -0.0845
- outcome: inactive

Continued:
Target gene | viability z-score, siRNA alone | viability, siRNA alone, vehicle (fraction of control) | synergy score with BYL719 | outcome
PLK4 | 0.0249 | 0.9 | -0.0838 | inactive
STK11 | 0.427 | 0.935 | 0.0336 | inactive
TSKS | -0.306 | 0.872 | -0.224 | inactive
PHKG1 | 0.691 | 0.957 | -0.0423 | inactive
CALM3 | -0.787 | 0.831 | -0.0708 | inactive
ADCK1 | -1.73 | 0.75 | -0.164 | inactive
NEK6 | 0.324 | 0.926 | -0.0558 | inactive
ERBB3 | 0.274 | 0.921 | -0.136 | inactive
